From PubChem BioAssay AID270 (DTP/NCI, 2004)
The list does not hold the whole screen: it gathers tests that were run many times, whatever their T/C, doses with no T/C, and many T/C values between a quarter and a half above the control. Further doses and runs are listed elsewhere. T/C is the treated group as % of the vehicle group. Some doses have a count of surviving animals in place of a T/C: the source files T/C as zero there, which appears to mark a toxic dose or a test without result, not a measured value. Some survivor counts are full or nearly so, which does not show that the dose was tolerated: the source hardly ever lists a survival T/C far under the control, and the zero likely stands for such cases as well. Survivors were counted at the toxicity check, usually on the fifth day, unless a day is given; later deaths do not show. Schedules are NCI's codes, read here as Q, the interval in days (D) or hours (H), X, the number of doses. Marks such as (2×) stand for listed records that agree. Some entries were tested several times; their values stand side by side, smallest first. For survival time, this PubChem deposit counts one and a half times the control or more as active, and values a quarter to a half above the control carry no call in these data; other NCI protocols may use other cut-offs. Some T/C values carry the count of animals alive at the toxicity check (mostly the fifth day); where none is given, no animal had died by that day.

Test system: BDF1 mice, s.c. Lewis lung carcinoma, T/C %
Assay: NCI In Vivo Anticancer Drug Screen. Data for tumor model Lewis Lung Carcinoma (subcutaneous) in B6D2F1 (BDF1) mice
Conditions: vehicle: saline
Outline: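 Tumor-bearing mice were treated with test compound, and either survival or tumor size was recorded. Values are the treated-group measurement divided by that of the vehicle-treated control group.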

[1] = T/C endpoint: median survival time, dose: 50.0 mg/kg/injection, schedule: Q01DX009 (ip), higher T/C = longer survival

## O=P1(N(CCCl)CCCl)NCCCO1 (centres undefined)
T/C endpoint: mean tumor weight (est.), dose: 65.0 mg/kg/injection, schedule: Q01DX009 (ip), higher T/C = larger tumour
  survivor count: 4 of 8
T/C endpoint: mean tumor weight (est.), dose: 300.0 mg/kg/injection, schedule: Q01DX001 (ip), higher T/C = larger tumour
  survivor count: 2 of 8
T/C endpoint: mean tumor weight, dose: 90.0 mg/kg/injection, schedule: Q01DX011 (ip), higher T/C = larger tumour
  survivor count: 5 of 10
T/C endpoint: median survival time, dose: 5.0 mg/kg/injection, schedule: Q01DX001 (ip), higher T/C = longer survival
  survivor count: 10 of 10
T/C endpoint: median survival time, dose: 5.0 mg/kg/injection, schedule: Q01DX009 (ip), higher T/C = longer survival
  survivor count: 10 of 10
T/C endpoint: median survival time, dose: 10.0 mg/kg/injection, schedule: Q01DX009 (ip), higher T/C = longer survival
  survivor count: 10 of 10
T/C endpoint: median survival time, dose: 12.5 mg/kg/injection, schedule: Q02DX009 (ip), higher T/C = longer survival
  T/C: 125 % of control
T/C endpoint: median survival time, dose: 20.0 mg/kg/injection, schedule: Q01DX005 (ip), higher T/C = longer survival
  T/C: 146 % of control
T/C endpoint: median survival time, dose: 20.0 mg/kg/injection, schedule: Q01DX009 (ip), higher T/C = longer survival
  survivor count: 10 of 10
T/C endpoint: median survival time, dose: 23.0 mg/kg/injection, schedule: Q01DX009 (ip), higher T/C = longer survival
  T/C: 129 % of control
T/C endpoint: median survival time, dose: 25.0 mg/kg/injection, schedule: Q01DX001 (ip), higher T/C = longer survival
  T/C: 134 % of control
T/C endpoint: median survival time, dose: 25.0 mg/kg/injection, schedule: Q01DX009 (ip), evaluated on day 45, higher T/C = longer survival
  T/C: 137 % of control
T/C endpoint: median survival time, dose: 25.0 mg/kg/injection, schedule: Q01DX009 (ip), evaluated on day 60, higher T/C = longer survival
  T/C: 91, 113, 128, 145 % of control
T/C endpoint: median survival time, dose: 25.0 mg/kg/injection, schedule: Q02DX009 (ip), higher T/C = longer survival
  T/C: 133 % of control
T/C endpoint: median survival time, dose: 30.0 mg/kg/injection, schedule: Q01DX009 (ip), higher T/C = longer survival
  survivor count: 10 of 10
T/C endpoint: median survival time, dose: 30.0 mg/kg/injection, schedule: Q01DX011 (ip), higher T/C = longer survival
  survivor count: 10 of 10
T/C endpoint: median survival time, dose: 39.0 mg/kg/injection, schedule: Q01DX009 (ip), higher T/C = longer survival
  survivor count: 8 of 8
T/C endpoint: median survival time, dose: 40.0 mg/kg/injection, schedule: Q01DX009 (ip), higher T/C = longer survival
  survivor count: 10 of 10 (2×)
T/C endpoint: median survival time, dose: 40.0 mg/kg/injection, schedule: Q01DX011 (ip), higher T/C = longer survival
  survivor count: 10 of 10
T/C endpoint: median survival time, dose: 50.0 mg/kg/injection, schedule: Q01DX001 (ip), higher T/C = longer survival
  T/C: 142 % of control
[1]
  T/C: 106, 130, 157, 183 % of control [9 of 10 alive]
  survivor count: 10 of 10
T/C endpoint: median survival time, dose: 50.0 mg/kg/injection, schedule: Q02DX009 (ip), higher T/C = longer survival
  survivor count: 10 of 10
T/C endpoint: median survival time, dose: 53.0 mg/kg/injection, schedule: Q04DX004 (ip), higher T/C = longer survival
  T/C: 141 % of control
T/C endpoint: median survival time, dose: 65.0 mg/kg/injection, schedule: Q01DX009 (ip), higher T/C = longer survival
  survivor count: 4 of 8, 6 of 8, 5 of 6
T/C endpoint: median survival time, dose: 66.0 mg/kg/injection, schedule: Q01DX009 (ip), higher T/C = longer survival
  survivor count: 10 of 10
T/C endpoint: median survival time, dose: 72.0 mg/kg/injection, schedule: Q01DX001 (ip), higher T/C = longer survival
  T/C: 130 % of control
T/C endpoint: median survival time, dose: 75.0 mg/kg/injection, schedule: Q01DX001 (ip), higher T/C = longer survival
  T/C: 97, 102, 135, 137 % of control
T/C endpoint: median survival time, dose: 75.0 mg/kg/injection, schedule: Q02DX009 (ip), higher T/C = longer survival
  survivor count: 10 of 10
T/C endpoint: median survival time, dose: 80.0 mg/kg/injection, schedule: Q01DX009 (ip), higher T/C = longer survival
  survivor count: 10 of 10
T/C endpoint: median survival time, dose: 80.0 mg/kg/injection, schedule: Q04DX004 (ip), higher T/C = longer survival
  T/C: 135 % of control
T/C endpoint: median survival time, dose: 90.0 mg/kg/injection, schedule: Q01DX001 (ip), higher T/C = longer survival
  T/C: 125 and 126 % of control
T/C endpoint: median survival time, dose: 100.0 mg/kg/injection, schedule: Q01DX001 (ip), evaluated on day 49, higher T/C = longer survival
  T/C: 143 % of control
T/C endpoint: median survival time, dose: 100.0 mg/kg/injection, schedule: Q01DX001 (ip), evaluated on day 60, higher T/C = longer survival
  T/C: 142 and 143 % of control
T/C endpoint: median survival time, dose: 100.0 mg/kg/injection, schedule: Q01DX004 (ip), higher T/C = longer survival
  survivor count: 5 of 8
T/C endpoint: median survival time, dose: 100.0 mg/kg/injection, schedule: Q01DX009 (ip), higher T/C = longer survival
  survivor count: 8 of 10, 10 of 10, 8 of 8
T/C endpoint: median survival time, dose: 100.0 mg/kg/injection, schedule: Q11DX002 (ip), higher T/C = longer survival
  T/C: 137 % of control [8 of 9 alive]
T/C endpoint: median survival time, dose: 108.0 mg/kg/injection, schedule: Q01DX001 (ip), evaluated on day 6, higher T/C = longer survival
  T/C: 130 and 364 % of control
T/C endpoint: median survival time, dose: 108.0 mg/kg/injection, schedule: Q01DX001 (ip), evaluated on day 17, higher T/C = longer survival
  T/C: 132 % of control
T/C endpoint: median survival time, dose: 108.0 mg/kg/injection, schedule: Q01DX001 (ip), evaluated on day 50, higher T/C = longer survival
  T/C: 113 % of control [8 of 10 alive on day 50]
T/C endpoint: median survival time, dose: 108.0 mg/kg/injection, schedule: Q01DX001 (ip), evaluated on day 52, higher T/C = longer survival
  T/C: 125 % of control
T/C endpoint: median survival time, dose: 108.0 mg/kg/injection, schedule: Q01DX001 (ip), evaluated on day 60, higher T/C = longer survival
  T/C: 135 % of control
T/C endpoint: median survival time, dose: 108.0 mg/kg/injection, schedule: Q01DX001 (ip), higher T/C = longer survival
  survivor count: 3 of 8 on day 100
T/C endpoint: median survival time, dose: 120.0 mg/kg/injection, schedule: Q01DX001 (ip), evaluated on day 5, higher T/C = longer survival
  T/C: 132 and 149 % of control
T/C endpoint: median survival time, dose: 120.0 mg/kg/injection, schedule: Q01DX001 (ip), evaluated on day 12, higher T/C = longer survival
  T/C: 115 and 123 % of control
T/C endpoint: median survival time, dose: 120.0 mg/kg/injection, schedule: Q04DX004 (ip), higher T/C = longer survival
  T/C: 135 % of control
T/C endpoint: median survival time, dose: 150.0 mg/kg/injection, schedule: Q01DX001 (ip), evaluated on day 14, higher T/C = longer survival
  T/C: 109 % of control
T/C endpoint: median survival time, dose: 150.0 mg/kg/injection, schedule: Q01DX001 (ip), evaluated on day 15, higher T/C = longer survival
  T/C: 130 % of control
T/C endpoint: median survival time, dose: 150.0 mg/kg/injection, schedule: Q01DX001 (ip), evaluated on day 60, higher T/C = longer survival
  T/C: 109, 152, 167 [9 of 10 alive], 171 % of control
T/C endpoint: median survival time, dose: 150.0 mg/kg/injection, schedule: Q01DX009 (ip), higher T/C = longer survival
  survivor count: 8 of 10
T/C endpoint: median survival time, dose: 180.0 mg/kg/injection, schedule: Q01DX001 (ip), evaluated on day 6, higher T/C = longer survival
  T/C: 234 and 364 % of control
T/C endpoint: median survival time, dose: 180.0 mg/kg/injection, schedule: Q01DX001 (ip), evaluated on day 17, higher T/C = longer survival
  T/C: 129 % of control
T/C endpoint: median survival time, dose: 180.0 mg/kg/injection, schedule: Q01DX001 (ip), evaluated on day 50, higher T/C = longer survival
  T/C: 167 % of control
T/C endpoint: median survival time, dose: 180.0 mg/kg/injection, schedule: Q01DX001 (ip), higher T/C = longer survival
  survivor count: 0 of 8 on day 100
T/C endpoint: median survival time, dose: 200.0 mg/kg/injection, schedule: Q01DX001 (ip), evaluated on day 5, higher T/C = longer survival
  T/C: 136 and 145 % of control
T/C endpoint: median survival time, dose: 200.0 mg/kg/injection, schedule: Q01DX001 (ip), evaluated on day 49, higher T/C = longer survival
  T/C: 200 % of control
T/C endpoint: median survival time, dose: 200.0 mg/kg/injection, schedule: Q01DX001 (ip), evaluated on day 60, higher T/C = longer survival
  T/C: 243 % of control
T/C endpoint: median survival time, dose: 200.0 mg/kg/injection, schedule: Q01DX001 (ip), higher T/C = longer survival
  survivor count: 9 of 10
T/C endpoint: median survival time, dose: 200.0 mg/kg/injection, schedule: Q04DX003 (sc), higher T/C = longer survival
  survivor count: 0 of 10 on day 58
T/C endpoint: median survival time, dose: 300.0 mg/kg/injection, schedule: Q01DX001 (ip), evaluated on day 6, higher T/C = longer survival
  T/C: 234 and 364 % of control
T/C endpoint: median survival time, dose: 300.0 mg/kg/injection, schedule: Q01DX001 (ip), evaluated on day 14, higher T/C = longer survival
  T/C: 177 % of control
T/C endpoint: median survival time, dose: 300.0 mg/kg/injection, schedule: Q01DX001 (ip), evaluated on day 17, higher T/C = longer survival
  T/C: 143 % of control
T/C endpoint: median survival time, dose: 300.0 mg/kg/injection, schedule: Q01DX001 (ip), evaluated on day 50, higher T/C = longer survival
  T/C: 167 % of control
T/C endpoint: median survival time, dose: 300.0 mg/kg/injection, schedule: Q01DX001 (ip), evaluated on day 52, higher T/C = longer survival
  T/C: 100 % of control [7 of 8 alive]
T/C endpoint: median survival time, dose: 300.0 mg/kg/injection, schedule: Q01DX001 (ip), evaluated on day 60, higher T/C = longer survival
  T/C: 131, 157, 171 % of control
T/C endpoint: median survival time, dose: 300.0 mg/kg/injection, schedule: Q01DX001 (ip), higher T/C = longer survival
  survivor count: 0 of 8 on day 100, 2 of 8, 8 of 10
T/C endpoint: median survival time, dose: 300.0 mg/kg/injection, schedule: Q09DX002 (ip), higher T/C = longer survival
  T/C: 125 % of control
T/C endpoint: median survival time, dose: 400.0 mg/kg/injection, schedule: Q01DX001 (ip), higher T/C = longer survival
  survivor count: 6 of 10 on day 49 and 10 of 10
T/C endpoint: median tumor weight (est.), dose: 25.0 mg/kg/injection, schedule: Q01DX009 (ip), higher T/C = larger tumour
  survivor count: 6 of 10
